Measured values reported in patent publication US10443054B2, “Methods for identifying and treating invasive/metastatic breast cancers” (Massachusetts Institute of Technology, priority 2016, dated 2019).
For at least one compound, name, drawing or mass did not settle the structure.

Key:
MDA-MB-231 cells = assay: Inverted invasion assay through matrigel towards EGF; conditions: Dasatinib 10 nM, STI571 10 μM, 72 hours vs DMSO, nuclei of invading cells above 40 μm
[1] = tested on: Lpd tyrosine phosphorylation in Abl/Arg double knockout mouse embryonic fibroblasts; assay: Lpd tyrosine phosphorylation after PDGF-BB stimulation (immunoprecipitation / Western blot); assay type: cell-based; conditions: 10 μM Bosutinib 2 hours, then 20 ng/ml PDGF-BB 2 minutes; Abl/Arg DKO MEFs

Cc1nc(Nc2ncc(C(=O)Nc3c(C)cccc3Cl)s2)cc(N2CCN(CCO)CC2)n1 [Dasatinib]
breast cancer cell invasiveness towards EGF (MDA-MB-231 cells): impaired

COc1cc(Nc2c(C#N)cnc3cc(OCCCN4CCN(C)CC4)c(OC)cc23)c(Cl)cc1Cl [Bosutinib]
Lpd tyrosine phosphorylation after PDGF-BB stimulation [1]: blocked
